# Results deposited as PubChem BioAssay AID1053208 (Peter MacCallum Cancer Centre, 2014)
# Assay: 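Genes whose silencing cuts survival of bone tumour cells only with doxorubicin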 (primary screen)
# System: mouse osteosarcoma cells, early-passage culture from an engineered mouse model of fibroblastic bone tumour
# Knock-down reagent: siRNA pool against mouse genes, 40 nM
# Duration: about 120 h (48 h before drug, then 72 h with drug)
# Challenge: doxorubicin 100 nM for 72 h, roughly 30-40% inhibitory dose
# Read-out: 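Viability read as ATP luminescence after 72 h of 100 nM doxorubicin or none, duplicate wells averaged, scaled to non-targeting siRNA, then expressed as robust z-scores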
# Scale: viability z-score with doxorubicin and doxorubicin viability vs non-targeting: higher = more viable cells under doxorubicin; viability z-score without drug: higher = more viable cells with knock-down alone; z-score of drug to no-drug ratio: higher = less drug sensitisation by knock-down
# Hit rule: 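Called active if knock-down leaves viability unchanged without drug (z within -2 to 2) but lowers it with doxorubicin (z at or under -2)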
# Shown is one part, drawn at random, of about 17,000 deposited reagents. Of all reagents, 788 (4.7%) were called active. 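Calls rest on z-score classes alone; an extra cut-off of viability at most 70% of control was not applied to them.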 Reagent sequences are not shown.
Target gene,combined z-score class,viability z-score with doxorubicin,viability z-score without drug,z-score of drug to no-drug ratio,doxorubicin viability vs non-targeting,outcome
4933409K07Rik,high cell count with and without drug,2.47,5.23,-0.67,1.16,inactive
B930095G15Rik,no change with or without drug,-1.35,-0.84,-0.79,0.82,inactive
Ppp1r16a,no change with or without drug,1.35,1.18,0.67,1.06,inactive
Pcdhgc4,no change with or without drug,-0.22,-0.84,0.45,0.92,inactive
Eci1,no change with or without drug,1.69,0.67,1.35,1.09,inactive
Lce1a2,high cell count with and without drug,3.48,2.02,2.14,1.25,inactive
Crebzf,no change with or without drug,0.22,1.01,-0.34,0.96,inactive
Tpo,no change with or without drug,0.11,0.17,0.11,0.95,inactive
Sun1,no change with or without drug,-1.46,0.84,-1.91,0.81,inactive
Mycs,no change with or without drug,-0.45,-0.17,-0.22,0.9,inactive
Hopx,no change with or without drug,0.45,0.84,0,0.98,inactive
Ubald2,no change with or without drug,1.46,1.85,0.34,1.07,inactive
Crat,no change with or without drug,-0.45,-0.84,0.22,0.9,inactive
Cep250,low cell count with doxorubicin only,-2.25,-1.85,-1.12,0.74,active
Slc38a3,no change with or without drug,-1.12,0.17,-1.12,0.84,inactive
Aplnr,no change with or without drug,-0.22,-1.52,1.01,0.92,inactive
9430015G10Rik,low cell count with doxorubicin only,-2.47,-0.17,-2.36,0.72,active
Med30,no change with or without drug,0,0.51,-0.22,0.94,inactive
Nuak1,no change with or without drug,-0.9,-0.51,-0.56,0.86,inactive
Tha1,no change with or without drug,-0.22,-0.51,0.22,0.92,inactive
Dlst,no change with or without drug,0,0.34,-0.11,0.94,inactive
Mbd3,no change with or without drug,0.45,0,0.56,0.98,inactive
Kif5b,no change with or without drug,-0.9,-0.84,-0.22,0.86,inactive
Grn,low cell count with doxorubicin only,-2.02,-0.84,-1.57,0.76,active
Fam177a,no change with or without drug,0.34,0.17,0.34,0.97,inactive
Gpbp1l1,no change with or without drug,-0.45,1.18,-1.12,0.9,inactive
Klhl6,no change with or without drug,-0.45,0.17,-0.45,0.9,inactive
Dok1,high cell count with doxorubicin only,2.47,1.01,1.91,1.16,inactive
Lyve1,no change with or without drug,0.56,-0.34,0.9,0.99,inactive
Or5d35,no change with or without drug,0.34,-0.51,0.79,0.97,inactive
Mrpl19,no change with or without drug,-0.45,-1.18,0.45,0.9,inactive
Ren1,no change with or without drug,-0.56,-0.84,0.11,0.89,inactive
Zc2hc1a,no change with or without drug,0,1.85,-1.01,0.94,inactive
Plekhj1,no change with or without drug,1.12,1.85,0,1.04,inactive

5 entries from above, reformatted.
Target gene | combined z-score class | viability z-score with doxorubicin | viability z-score without drug | z-score of drug to no-drug ratio | doxorubicin viability vs non-targeting | outcome
Tha1 | no change with or without drug | -0.22 | -0.51 | 0.22 | 0.92 | inactive
Dlst | no change with or without drug | 0 | 0.34 | -0.11 | 0.94 | inactive
Mbd3 | no change with or without drug | 0.45 | 0 | 0.56 | 0.98 | inactive
Kif5b | no change with or without drug | -0.9 | -0.84 | -0.22 | 0.86 | inactive
Grn | low cell count with doxorubicin only | -2.02 | -0.84 | -1.57 | 0.76 | active
